The text below walks through data of article PMC3858272, “Construction and Application of Elastin Like Polypeptide Containing IL-4 Receptor Targeting Peptide” (PLoS ONE, 2013).

By UniProt entry, the sequences of proteins in these tests, tags left out. Where a name states a change or a piece, a line headed by the entry shows the natural chain unless it says otherwise. Residues count along the entry.
UniProt P24394: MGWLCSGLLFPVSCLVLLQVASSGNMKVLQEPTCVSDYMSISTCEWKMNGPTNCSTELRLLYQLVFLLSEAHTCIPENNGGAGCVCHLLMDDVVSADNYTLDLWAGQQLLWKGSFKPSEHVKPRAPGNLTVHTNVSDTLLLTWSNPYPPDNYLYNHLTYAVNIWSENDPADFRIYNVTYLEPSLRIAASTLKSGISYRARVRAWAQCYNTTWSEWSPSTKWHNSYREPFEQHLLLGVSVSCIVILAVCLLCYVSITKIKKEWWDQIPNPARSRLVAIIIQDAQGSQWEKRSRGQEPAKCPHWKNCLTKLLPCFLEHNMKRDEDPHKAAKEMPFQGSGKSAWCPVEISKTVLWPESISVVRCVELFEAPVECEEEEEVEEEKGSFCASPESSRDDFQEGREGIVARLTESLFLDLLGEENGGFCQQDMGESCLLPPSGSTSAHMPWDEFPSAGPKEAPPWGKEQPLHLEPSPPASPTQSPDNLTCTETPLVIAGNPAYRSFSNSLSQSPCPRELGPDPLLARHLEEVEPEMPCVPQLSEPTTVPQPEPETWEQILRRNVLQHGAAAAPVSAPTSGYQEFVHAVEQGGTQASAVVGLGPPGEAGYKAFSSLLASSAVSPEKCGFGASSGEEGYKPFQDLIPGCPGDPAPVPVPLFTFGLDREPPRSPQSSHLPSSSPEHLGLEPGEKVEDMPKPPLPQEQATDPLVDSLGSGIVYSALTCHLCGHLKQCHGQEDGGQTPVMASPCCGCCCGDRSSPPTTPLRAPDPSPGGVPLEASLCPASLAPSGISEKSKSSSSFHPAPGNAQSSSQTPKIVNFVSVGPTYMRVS
IL-4 receptor on H226 and MDA-MB-231 cancer cells (human (endogenous in H226 and MDA-MB-231)): residues 26-825 of P24394
IL-4Rα (CD124): residues 26-232 of P24394

No constants are given. Whether binding was seen depends on the method and setting. Some results given as binding are weak or reduced against the parent protein; the word gives no strength.

In assay [1] the target is IL-4 receptor on H226 and MDA-MB-231 cancer cells (human (endogenous in H226 and MDA-MB-231)) (UniProt P24394). The assay can be described thus: flow cytometry on cells; competition: cells pre-treated with anti-IL-4R antibody (R&D Systems; 1, 5 and 10 µg) at 4°C for 1 h, then 10 µM Alexa 488-labelled [AP1-V12]6 for 1 h at 4°C; methods name H226 and MDA-MB-231 cells, the legend H226 cells; only the binder purified. On the technique in general: A flow cytometer gives signals particle by particle.

For assay [2] the target is unchanged. The assay can be described thus: confocal microscopy of labelled ligand on cells; 10 µM Alexa 488-labelled polymer or peptide on H226, MDA-MB-231 and H460 cells, 1 h at 4°C, washed, fixed with 4% paraformaldehyde; only the binder purified.
For a further assay, the target named is IL-4Rα (CD124) (UniProt P24394). The assay can be described thus: SPR; IL-4Rα immobilised by amine coupling on a carboxymethyl dextran chip (2000±400 RU); AP1 peptide 3.125 to 50 µM, [AP1-V12]6 125 nM to 1 µM, [V14]6 1 µM flowed for 3 min at 25 µL/min; 25°C; kinetic fits with Scrubber 2; both purified. For orientation: Surface plasmon resonance follows binding to a sensor surface in real time, without labels.

B1: Alexa 488-labeled [AP1-V12]6 (designed binder)
chain: SGPGVGRKRLDRNGVGVPGVGVPGVGVPGVGVPGVGVPGVGVPGVGVPGVGVPGVGVPGVGVPGVGVPGVGVPGVGRKRLDRNGVGVPGVGVPGVGVPGVGVPGVGVPGVGVPGVGVPGVGVPGVGVPGVGVPGVGVPGVGVPGVGRKRLDRNGVGVPGVGVPGVGVPGVGVPGVGVPGVGVPGVGVPGVGVPGVGVPGVGVPGVGVPGVGVPGVGRKRLDRNGVGVPGVGVPGVGVPGVGVPGVGVPGVGVPGVGVPGVGVPGVGVPGVGVPGVGVPGVGVPGVGRKRLDRNGVGVPGVGVPGVGVPGVGVPGVGVPGVGVPGVGVPGVGVPGVGVPGVGVPGVGVPGVGVPGVGRKRLDRNGVGVPGVGVPGVGVPGVGVPGVGVPGVGVPGVGVPGVGVPGVGVPGVGVPGVGVPGVGVPGWPC
modifications: Alexa Fluor 488-C5 maleimide on the C-terminal Cys residue
notes: as m1; The labelled form of m1, used on cells (flow cytometry, confocal microscopy); also called Alexa-labeled [AP1-V12]6; targeted [AP1-V12]6 polymer; source: E. coli BL21 (DE3), purified (four rounds of inverse transition cycling), then labelled
For B1, the binding entry in assay [1] and in assay [2] was “binds” each time.

B2: [V14]6 polymer, SGPG[(VGVPG)14]6WPC (protein)
chain: SGPGVGVPGVGVPGVGVPGVGVPGVGVPGVGVPGVGVPGVGVPGVGVPGVGVPGVGVPGVGVPGVGVPGVGVPGVGVPGVGVPGVGVPGVGVPGVGVPGVGVPGVGVPGVGVPGVGVPGVGVPGVGVPGVGVPGVGVPGVGVPGVGVPGVGVPGVGVPGVGVPGVGVPGVGVPGVGVPGVGVPGVGVPGVGVPGVGVPGVGVPGVGVPGVGVPGVGVPGVGVPGVGVPGVGVPGVGVPGVGVPGVGVPGVGVPGVGVPGVGVPGVGVPGVGVPGVGVPGVGVPGVGVPGVGVPGVGVPGVGVPGVGVPGVGVPGVGVPGVGVPGVGVPGVGVPGVGVPGVGVPGVGVPGVGVPGVGVPGVGVPGVGVPGVGVPGVGVPGVGVPGVGVPGVGVPGVGVPGVGVPGVGVPGVGVPGVGVPGWPC
B2: the binding result in the assay with IL-4Rα (CD124) is reported as “no binding (tested: 1 µM)”.
